{"source": "PubChem BioAssay AID504764 (Drosophila RNAi Screening Center, 2011)", "screen": "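Knock-downs that raise or lower a Notch target reporter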 (primary screen)", "cells": "Drosophila Kc167 cells", "reagents": "long dsRNA against Drosophila genes", "timing": "about 5 days (4 days dsRNA, then 24 h after transfection)", "challenge": "transfection of constitutively active membrane-tethered Notch lacking the extracellular domain, read 24 h later", "detection": "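Light from a Notch-responsive E(spl)m3 luciferase reporter under active Notch, with control-promoter and no-Notch reporter wells to normalise; raw counts from paired wells a and b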", "reading the numbers": "induced reporter light, run 1, well a and induced reporter light, run 1, well b: higher = more light from the Notch target reporter with active Notch; control promoter light, run 1, well a and control promoter light, run 1, well b: higher = more light from the viral control promoter (cell number, transfection, viability); uninduced reporter light, run 1, well a: higher = more light from the Notch target reporter without active Notch", "hit rule": "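Hit if the duplicate-averaged log2 ratio of induced to control-promoter light gives a plate-wise z beyond ±2, or induced to uninduced beyond ±1.8; weak-control or discordant-duplicate wells dropped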", "meaning of the calls": "active = modifier hit (raised or lowered Notch signal); inactive = not a hit", "note": "In all, the deposit lists about 22,000 reagents; shown is a random part of those with a known target gene and a result. Over the whole deposit, 403 (1.9%) got an active call. 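Unnormalised raw counts per well; ratio z-scores behind the hit calls and whether each hit raises or lowers signal are not deposited.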 Not given: the amount of reagent."}
{"Gene":"rhi","dsRNA":"DRSC05996","induced reporter light, run 1, well a":1.22e5,"induced reporter light, run 1, well b":83475,"control promoter light, run 1, well a":87140,"control promoter light, run 1, well b":1.00e5,"uninduced reporter light, run 1, well a":10810,"Call":"inactive"}
{"Gene":"CG34197 (retired record)","dsRNA":"DRSC05791","induced reporter light, run 1, well a":77520,"induced reporter light, run 1, well b":77880,"control promoter light, run 1, well a":1.30e5,"control promoter light, run 1, well b":1.40e5,"uninduced reporter light, run 1, well a":8355,"Call":"inactive"}
{"Gene":"CG31195","dsRNA":"DRSC13440","induced reporter light, run 1, well a":65445,"induced reporter light, run 1, well b":55240,"control promoter light, run 1, well a":82530,"control promoter light, run 1, well b":69760,"uninduced reporter light, run 1, well a":8065,"Call":"inactive"}
{"Gene":"CanB","dsRNA":"DRSC18449","induced reporter light, run 1, well a":1.59e5,"induced reporter light, run 1, well b":1.97e5,"control promoter light, run 1, well a":2.71e5,"control promoter light, run 1, well b":2.86e5,"uninduced reporter light, run 1, well a":11055,"Call":"inactive"}
{"Gene":"CG4891","dsRNA":"DRSC01936","induced reporter light, run 1, well a":1.84e5,"induced reporter light, run 1, well b":1.80e5,"control promoter light, run 1, well a":1.66e5,"control promoter light, run 1, well b":1.67e5,"uninduced reporter light, run 1, well a":13910,"Call":"inactive"}
{"Gene":"btl","dsRNA":"DRSC11331","induced reporter light, run 1, well a":2.72e5,"induced reporter light, run 1, well b":2.04e5,"control promoter light, run 1, well a":3.22e5,"control promoter light, run 1, well b":2.54e5,"uninduced reporter light, run 1, well a":9125,"Call":"inactive"}
{"Gene":"ninaD","dsRNA":"DRSC02886","induced reporter light, run 1, well a":1.42e5,"induced reporter light, run 1, well b":1.46e5,"control promoter light, run 1, well a":1.57e5,"control promoter light, run 1, well b":1.53e5,"uninduced reporter light, run 1, well a":13250,"Call":"inactive"}
{"Gene":"nanos","dsRNA":"DRSC17018","induced reporter light, run 1, well a":98220,"induced reporter light, run 1, well b":85595,"control promoter light, run 1, well a":90105,"control promoter light, run 1, well b":81360,"uninduced reporter light, run 1, well a":9595,"Call":"inactive"}
{"Gene":"CG42699","dsRNA":"DRSC18076","induced reporter light, run 1, well a":1.99e5,"induced reporter light, run 1, well b":1.74e5,"control promoter light, run 1, well a":2.61e5,"control promoter light, run 1, well b":2.13e5,"uninduced reporter light, run 1, well a":13960,"Call":"inactive"}
{"Gene":"CG42699","dsRNA":"DRSC18341","induced reporter light, run 1, well a":1.50e5,"induced reporter light, run 1, well b":1.54e5,"control promoter light, run 1, well a":1.97e5,"control promoter light, run 1, well b":2.13e5,"uninduced reporter light, run 1, well a":10820,"Call":"inactive"}
{"Gene":"polybromo","dsRNA":"DRSC14307","induced reporter light, run 1, well a":1.73e5,"induced reporter light, run 1, well b":2.14e5,"control promoter light, run 1, well a":3.58e5,"control promoter light, run 1, well b":3.71e5,"uninduced reporter light, run 1, well a":17885,"Call":"active"}
{"Gene":"CG3397","dsRNA":"DRSC15487","induced reporter light, run 1, well a":1.22e5,"induced reporter light, run 1, well b":1.62e5,"control promoter light, run 1, well a":79950,"control promoter light, run 1, well b":81055,"uninduced reporter light, run 1, well a":9590,"Call":"inactive"}

3 entries already listed, ordered by “control promoter light, run 1, well b”, high to low.
{"Gene":"CG42699","dsRNA":"DRSC18076","induced reporter light, run 1, well a":1.99e5,"induced reporter light, run 1, well b":1.74e5,"control promoter light, run 1, well a":2.61e5,"control promoter light, run 1, well b":2.13e5,"uninduced reporter light, run 1, well a":13960,"Call":"inactive"}
{"Gene":"CG42699","dsRNA":"DRSC18341","induced reporter light, run 1, well a":1.50e5,"induced reporter light, run 1, well b":1.54e5,"control promoter light, run 1, well a":1.97e5,"control promoter light, run 1, well b":2.13e5,"uninduced reporter light, run 1, well a":10820,"Call":"inactive"}
{"Gene":"nanos","dsRNA":"DRSC17018","induced reporter light, run 1, well a":98220,"induced reporter light, run 1, well b":85595,"control promoter light, run 1, well a":90105,"control promoter light, run 1, well b":81360,"uninduced reporter light, run 1, well a":9595,"Call":"inactive"}

More results follow:
{"Gene":"mew","dsRNA":"DRSC18971","induced reporter light, run 1, well a":83790,"induced reporter light, run 1, well b":80075,"control promoter light, run 1, well a":1.05e5,"control promoter light, run 1, well b":94720,"uninduced reporter light, run 1, well a":6600,"Call":"inactive"}
{"Gene":"mew","dsRNA":"DRSC20352","induced reporter light, run 1, well a":1.17e5,"induced reporter light, run 1, well b":1.14e5,"control promoter light, run 1, well a":2.15e5,"control promoter light, run 1, well b":1.96e5,"uninduced reporter light, run 1, well a":8585,"Call":"inactive"}
{"Gene":"ttv","dsRNA":"DRSC07709","induced reporter light, run 1, well a":89430,"induced reporter light, run 1, well b":89775,"control promoter light, run 1, well a":85280,"control promoter light, run 1, well b":1.02e5,"uninduced reporter light, run 1, well a":9110,"Call":"inactive"}
{"Gene":"CG32639","dsRNA":"DRSC18972","induced reporter light, run 1, well a":90200,"induced reporter light, run 1, well b":81285,"control promoter light, run 1, well a":1.38e5,"control promoter light, run 1, well b":94690,"uninduced reporter light, run 1, well a":7265,"Call":"inactive"}
{"Gene":"E2f2","dsRNA":"DRSC03320","induced reporter light, run 1, well a":1.64e5,"induced reporter light, run 1, well b":2.49e5,"control promoter light, run 1, well a":1.48e5,"control promoter light, run 1, well b":1.76e5,"uninduced reporter light, run 1, well a":14370,"Call":"inactive"}
{"Gene":"ova","dsRNA":"DRSC02879","induced reporter light, run 1, well a":2.00e5,"induced reporter light, run 1, well b":2.13e5,"control promoter light, run 1, well a":1.49e5,"control promoter light, run 1, well b":1.72e5,"uninduced reporter light, run 1, well a":16810,"Call":"inactive"}
